Experimental findings from paper PMC12339988 are described below.

Sequences of proteins named here, by UniProt entry; tags and fusion partners are left off. A change or cut given only in a name is not applied to a line headed by its entry. Residues count along the entry.
UniProt P40763: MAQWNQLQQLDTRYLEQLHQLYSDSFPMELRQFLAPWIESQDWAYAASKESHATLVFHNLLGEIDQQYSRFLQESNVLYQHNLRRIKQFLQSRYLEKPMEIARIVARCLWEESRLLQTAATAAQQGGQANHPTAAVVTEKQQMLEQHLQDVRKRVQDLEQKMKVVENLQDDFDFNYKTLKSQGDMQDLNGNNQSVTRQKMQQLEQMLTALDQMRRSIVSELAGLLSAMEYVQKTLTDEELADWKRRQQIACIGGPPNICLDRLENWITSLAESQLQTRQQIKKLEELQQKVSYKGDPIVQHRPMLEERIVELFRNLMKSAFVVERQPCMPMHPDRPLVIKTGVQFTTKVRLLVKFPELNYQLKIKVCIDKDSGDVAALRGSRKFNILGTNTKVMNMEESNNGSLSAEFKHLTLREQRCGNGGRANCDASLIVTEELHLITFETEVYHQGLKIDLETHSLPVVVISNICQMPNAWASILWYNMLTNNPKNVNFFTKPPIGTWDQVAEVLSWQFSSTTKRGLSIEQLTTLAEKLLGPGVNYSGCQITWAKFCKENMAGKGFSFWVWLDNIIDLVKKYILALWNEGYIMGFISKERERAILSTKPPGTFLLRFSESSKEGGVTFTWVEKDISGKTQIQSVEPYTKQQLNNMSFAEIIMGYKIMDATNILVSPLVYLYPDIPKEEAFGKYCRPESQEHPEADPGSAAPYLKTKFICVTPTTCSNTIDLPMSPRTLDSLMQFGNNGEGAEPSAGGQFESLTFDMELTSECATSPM
UniProt P33993: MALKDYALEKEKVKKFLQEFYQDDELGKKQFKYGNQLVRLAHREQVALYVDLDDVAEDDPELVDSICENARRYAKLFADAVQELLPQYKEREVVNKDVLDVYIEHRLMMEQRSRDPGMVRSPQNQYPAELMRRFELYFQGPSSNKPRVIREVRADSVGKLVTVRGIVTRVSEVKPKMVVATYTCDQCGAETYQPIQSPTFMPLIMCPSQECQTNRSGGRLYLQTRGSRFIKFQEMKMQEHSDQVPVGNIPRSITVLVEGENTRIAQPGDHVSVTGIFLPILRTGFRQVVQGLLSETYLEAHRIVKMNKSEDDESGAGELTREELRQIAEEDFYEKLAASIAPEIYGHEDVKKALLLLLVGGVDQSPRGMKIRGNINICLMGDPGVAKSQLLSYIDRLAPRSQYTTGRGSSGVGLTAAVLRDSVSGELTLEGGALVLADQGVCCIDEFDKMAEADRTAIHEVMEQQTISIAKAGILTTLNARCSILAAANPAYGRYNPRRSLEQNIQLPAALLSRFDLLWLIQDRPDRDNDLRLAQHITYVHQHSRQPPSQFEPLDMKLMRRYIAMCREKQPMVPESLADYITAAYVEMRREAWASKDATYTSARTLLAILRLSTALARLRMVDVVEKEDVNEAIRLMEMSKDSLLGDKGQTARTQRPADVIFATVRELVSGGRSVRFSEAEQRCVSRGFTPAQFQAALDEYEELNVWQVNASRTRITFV
MCM7 N-terminal domain (amino acids 10-140), for Co-IP: residues 10-140 of P33993
MCM7 AAA domain (amino acids 373-526), for Co-IP: residues 373-526 of P33993

No constants are given. Whether binding was seen depends on the method and setting. Binding seen in cells or lysates may run through a third protein. Some results given as binding are weak or reduced against the parent protein; the word gives no strength. For some of these results: Tags and fused reporters may be left off the sequences shown.

Assay [1] deals with T1, SHCBP1, endogenous (human (endogenous in HepG2 and HL7702)) (UniProt Q8NEM2).
T1 sequence: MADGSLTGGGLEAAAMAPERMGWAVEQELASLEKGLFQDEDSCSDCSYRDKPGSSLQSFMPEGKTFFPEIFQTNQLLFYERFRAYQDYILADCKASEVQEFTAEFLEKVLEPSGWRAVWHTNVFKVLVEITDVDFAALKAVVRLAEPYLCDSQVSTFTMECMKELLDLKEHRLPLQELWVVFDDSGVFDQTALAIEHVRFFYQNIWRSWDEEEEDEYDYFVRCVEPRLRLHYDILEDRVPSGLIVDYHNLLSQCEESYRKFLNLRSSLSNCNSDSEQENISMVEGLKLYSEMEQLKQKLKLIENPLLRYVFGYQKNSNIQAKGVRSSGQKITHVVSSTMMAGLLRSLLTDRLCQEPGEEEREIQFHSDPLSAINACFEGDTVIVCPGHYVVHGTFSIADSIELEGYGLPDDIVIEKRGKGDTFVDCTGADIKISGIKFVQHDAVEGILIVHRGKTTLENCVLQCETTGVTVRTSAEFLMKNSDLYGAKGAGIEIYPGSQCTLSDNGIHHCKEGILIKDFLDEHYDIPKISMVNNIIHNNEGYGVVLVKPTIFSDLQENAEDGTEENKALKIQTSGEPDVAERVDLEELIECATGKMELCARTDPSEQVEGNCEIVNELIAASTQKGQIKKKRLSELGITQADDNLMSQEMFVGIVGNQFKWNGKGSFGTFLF
The assay is described as follows: co-IP; endogenous SHCBP1 and RACGAP1 in HepG2 lysate; also in HepG2 cells transfected with shCtrl or shMCM7.

Assay [2] has as its target STAT3, endogenous (human (endogenous in HepG2)) (UniProt P40763). The assay is described as follows: co-IP; RACGAP1 and STAT3 in lysate of HepG2 cells transfected with shCtrl, shSHCBP1 or shMCM7.
Assay [3] deals with minichromosome maintenance complex component 7 (MCM7), endogenous (human (endogenous in HepG2)) (UniProt P33993). The assay is described as follows: co-IP; endogenous proteins in HepG2 lysate; anti-MCM7 antibody or isotype-matched control IgG, protein A/G-agarose beads, 4 °C; IP buffer 150 mM NaCl, 25 mM Tris-HCl pH 8.0, 1 mM EDTA, 1% Triton X-100, 0.5% Nonidet P-40.
Assay [4] has as its target FLAG/HA-tagged MCM7 (full length) (UniProt P33993). The assay is described as follows: co-IP; MCM7 and SHCBP1 overexpressed in HEK293T cells (Fig. S6D).
Assay [5] deals with MCM7 N-terminal domain (amino acids 10-140), for Co-IP (UniProt P33993). The assay is described as follows: co-IP; truncated MCM7 fragments with SHCBP1 (Fig. 4G); cell line not stated for this panel.
Assay [6] addresses MCM7 AAA domain (amino acids 373-526), for Co-IP (UniProt P33993). The description is as above.
Assay [7] concerns the target FLAG/HA-tagged MCM7 (full length) (UniProt P33993). The assay is described as follows: co-IP; FLAG/HA-tagged MCM7 and FLAG/HA-tagged SHCBP1 overexpressed in HepG2 cells.

B1: RACGAP1, endogenous (protein, UniProt Q9H0H5 1-632)
chain: MDTMMLNVRNLFEQLVRRVEILSEGNEVQFIQLAKDFEDFRKKWQRTDHELGKYKDLLMKAETERSALDVKLKHARNQVDVEIKRRQRAEADCEKLERQIQLIREMLMCDTSGSIQLSEEQKSALAFLNRGQPSSSNAGNKRLSTIDESGSILSDISFDKTDESLDWDSSLVKTFKLKKREKRRSTSRQFVDGPPGPVKKTRSIGSAVDQGNESIVAKTTVTVPNDGGPIEAVSTIETVPYWTRSRRKTGTLQPWNSDSTLNSRQLEPRTETDSVGTPQSNGGMRLHDFVSKTVIKPESCVPCGKRIKFGKLSLKCRDCRVVSHPECRDRCPLPCIPTLIGTPVKIGEGMLADFVSQTSPMIPSIVVHCVNEIEQRGLTETGLYRISGCDRTVKELKEKFLRVKTVPLLSKVDDIHAICSLLKDFLRNLKEPLLTFRLNRAFMEAAEITDEDNSIAAMYQAVGELPQANRDTLAFLMIHLQRVAQSPHTKMDVANLAKVFGPTIVAHAVPNPDPVTMLQDIKRQPKVVERLLSLPLEYWSQFMMVEQENIDPLHVIENSNAFSTPQTPDIKVSLLGPVTTPEHQLLKTPSSSSLSQRVRSTLTKNTPRFGSKSKSATNLGRQGNFFASPMLK
B1: the binding entry in assay [1] and in assay [2] was “binds” each time.

B2: SHCBP1, endogenous (protein, UniProt Q8NEM2 1-672)
chain: T1 sequence
Turning to B2, the binding entry in assay [3] is “binds”.

B3: FLAG/HA-tagged SHCBP1 (protein, UniProt Q8NEM2 1-672)
chain: T1 sequence
With B3, the binding result in assay [4], in assay [5], in assay [6] and in assay [7] was “binds” each time.
